{"source": "PubChem BioAssay AID602196 (INSERM, 2012)", "purpose": "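Knock-downs that protect lung cancer cells from cisplatin or sensitise them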", "cell system": "human A549 lung cancer cells", "reagents": "siRNA pair against human genes", "time to read-out": "48 h transfection before cisplatin; time from cisplatin to read-out not stated", "challenge": "cisplatin at a dose killing half of control-siRNA cells; exact dose and duration not given", "measured": "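Shift in cisplatin death relative to control siRNA, from -50 (all cells die) to +50 (no cells die); siRNAs harmful on their own scored 0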", "scale": "two-siRNA summed score (-2 to +2): higher = both siRNAs protect from cisplatin killing; -2 means both sensitise; mean protection from cisplatin (shift in death): higher = protection from cisplatin killing", "call rule": "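Each siRNA scores 0 if harmful alone by LDH or WST-1, otherwise +1 if it reduces and -1 if it increases cisplatin killing; a gene is active when both siRNAs agree (sum +2 or -2)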", "calls": "active = both siRNAs shift cisplatin killing the same way; inactive = no consistent shift, or siRNA harmful alone", "note": "In all, the deposit lists about 23,000 reagents; below is an unselected part. In the full data, 455 (2%) got an active call. 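Active includes both protection and sensitisation; some change values fall well beyond the stated -50 to +50 range.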 Unmarked entries are inactive. Further read-outs or replicates are left out here. The record does not give: the amount of reagent."}
{"target": "LRRC37B (leucine rich repeat containing 37B)", "two-siRNA summed score (-2 to +2)": 0, "mean protection from cisplatin (shift in death) (%)": 0}
{"target": "FHIP2A (FHF complex subunit HOOK interacting protein 2A)", "two-siRNA summed score (-2 to +2)": 0, "mean protection from cisplatin (shift in death) (%)": -1.8}
{"target": "AZGP1 (alpha-2-glycoprotein 1, zinc-binding)", "two-siRNA summed score (-2 to +2)": 0, "mean protection from cisplatin (shift in death) (%)": -5.7}
{"target": "ST20-AS1 (ST20 antisense RNA 1)", "two-siRNA summed score (-2 to +2)": 0, "mean protection from cisplatin (shift in death) (%)": 5.1}
{"target": "POU3F3 (POU class 3 homeobox 3)", "two-siRNA summed score (-2 to +2)": 0, "mean protection from cisplatin (shift in death) (%)": 16.9}
{"target": "DKFZp686J0529", "two-siRNA summed score (-2 to +2)": 0, "mean protection from cisplatin (shift in death) (%)": 14.5}
{"target": "RANGRF (RAN guanine nucleotide release factor)", "two-siRNA summed score (-2 to +2)": 0, "mean protection from cisplatin (shift in death) (%)": -2.5}
{"target": "STIMATE (STIM activating enhancer)", "two-siRNA summed score (-2 to +2)": 0, "mean protection from cisplatin (shift in death) (%)": 9.5}
{"target": "LOC151579", "two-siRNA summed score (-2 to +2)": 0, "mean protection from cisplatin (shift in death) (%)": 9.4}
{"target": "LRRC20 (leucine rich repeat containing 20)", "two-siRNA summed score (-2 to +2)": 0, "mean protection from cisplatin (shift in death) (%)": -5.9}
{"target": "RIT2 (Ras like without CAAX 2)", "two-siRNA summed score (-2 to +2)": 0, "mean protection from cisplatin (shift in death) (%)": 0.1}
{"target": "NRIP2 (nuclear receptor interacting protein 2)", "two-siRNA summed score (-2 to +2)": 0, "mean protection from cisplatin (shift in death) (%)": 10.2}
{"target": "MYH4 (myosin heavy chain 4)", "two-siRNA summed score (-2 to +2)": 0, "mean protection from cisplatin (shift in death) (%)": -0.9}
{"target": "LOC285733", "two-siRNA summed score (-2 to +2)": 0, "mean protection from cisplatin (shift in death) (%)": 8.5}
{"target": "FAM81A (family with sequence similarity 81 member A)", "two-siRNA summed score (-2 to +2)": 0, "mean protection from cisplatin (shift in death) (%)": 4.2}

2 entries from above, arranged by “two-siRNA summed score (-2 to +2)”, ascending:
{"target": "RANGRF (RAN guanine nucleotide release factor)", "two-siRNA summed score (-2 to +2)": 0, "mean protection from cisplatin (shift in death) (%)": -2.5}
{"target": "STIMATE (STIM activating enhancer)", "two-siRNA summed score (-2 to +2)": 0, "mean protection from cisplatin (shift in death) (%)": 9.5}

The listing continues:
{"target": "CD2 (CD2 molecule)", "two-siRNA summed score (-2 to +2)": -1, "mean protection from cisplatin (shift in death) (%)": -21.8}
{"target": "PWP1 (PWP1 homolog, endonuclein)", "two-siRNA summed score (-2 to +2)": 1, "mean protection from cisplatin (shift in death) (%)": 9.9}
{"target": "CRTAM (cytotoxic and regulatory T cell molecule)", "two-siRNA summed score (-2 to +2)": 0, "mean protection from cisplatin (shift in death) (%)": 0.2}
{"target": "UBE2K (ubiquitin conjugating enzyme E2 K)", "two-siRNA summed score (-2 to +2)": 0, "mean protection from cisplatin (shift in death) (%)": 18.9}
{"target": "MYH9 (myosin heavy chain 9)", "two-siRNA summed score (-2 to +2)": -1, "mean protection from cisplatin (shift in death) (%)": -7.5}
{"target": "LOC400843", "two-siRNA summed score (-2 to +2)": 0, "mean protection from cisplatin (shift in death) (%)": 2.1}
{"target": "LOC400861", "two-siRNA summed score (-2 to +2)": 0, "mean protection from cisplatin (shift in death) (%)": 1.3}
{"target": "LOC439976", "two-siRNA summed score (-2 to +2)": 0, "mean protection from cisplatin (shift in death) (%)": -5}
{"target": "CAMTA2 (calmodulin binding transcription activator 2)", "two-siRNA summed score (-2 to +2)": 1, "mean protection from cisplatin (shift in death) (%)": 10.4}
{"target": "LINC00664 (long independently transcribed non-coding RNA 664)", "two-siRNA summed score (-2 to +2)": 0, "mean protection from cisplatin (shift in death) (%)": 9.3}
{"target": "GPAT3 (glycerol-3-phosphate acyltransferase 3)", "two-siRNA summed score (-2 to +2)": 0, "mean protection from cisplatin (shift in death) (%)": -5}
{"target": "MS4A5 (membrane spanning 4-domains A5)", "two-siRNA summed score (-2 to +2)": 1, "mean protection from cisplatin (shift in death) (%)": 19.2}
{"target": "TMEM174 (transmembrane protein 174)", "two-siRNA summed score (-2 to +2)": 0, "mean protection from cisplatin (shift in death) (%)": -1.5}
{"target": "TGM1 (transglutaminase 1)", "two-siRNA summed score (-2 to +2)": 0, "mean protection from cisplatin (shift in death) (%)": 3.8}
{"target": "HSF4 (heat shock transcription factor 4)", "two-siRNA summed score (-2 to +2)": 0, "mean protection from cisplatin (shift in death) (%)": -21.2}
{"target": "KLHL23 (kelch like family member 23)", "two-siRNA summed score (-2 to +2)": 0, "mean protection from cisplatin (shift in death) (%)": 8}
